From paper PMC3837162
No constants are given. Whether binding was seen depends on the method and setting. Binding seen in cells or lysates may run through a third protein. Some binding calls cover weakened binding; strength is not graded here. For part of these data: Where a sequence is shown, tags or fusion partners need not be part of it.

Amino acid sequences for entries named in this document (tags omitted).
UniProt P84095: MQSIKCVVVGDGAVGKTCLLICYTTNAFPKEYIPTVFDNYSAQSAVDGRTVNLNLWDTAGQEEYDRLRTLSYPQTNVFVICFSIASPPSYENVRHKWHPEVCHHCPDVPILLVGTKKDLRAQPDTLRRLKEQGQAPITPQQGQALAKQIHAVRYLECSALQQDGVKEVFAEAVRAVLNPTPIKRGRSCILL
UniProt P84096: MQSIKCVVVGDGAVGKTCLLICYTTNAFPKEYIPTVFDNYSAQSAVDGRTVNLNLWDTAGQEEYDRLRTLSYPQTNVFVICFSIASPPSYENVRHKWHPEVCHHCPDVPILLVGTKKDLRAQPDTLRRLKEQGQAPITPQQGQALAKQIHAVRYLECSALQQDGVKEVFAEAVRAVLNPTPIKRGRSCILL
UniProt P63027: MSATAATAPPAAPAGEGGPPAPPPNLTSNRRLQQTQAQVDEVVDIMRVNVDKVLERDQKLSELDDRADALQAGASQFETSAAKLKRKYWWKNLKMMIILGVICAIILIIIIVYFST

How the values were obtained:
GST-RhoG fusion protein [1] = target: GST-RhoG fusion protein (UniProt P84095); test: pull-down; GTPγS-loaded (100 uM) GST-RhoG-Sepharose beads rotated with human platelet whole cell lysates for 1 h at 4 °C; bound proteins detected by immunoblotting; GSH-Sepharose beads as control; only the target purified
GST-RhoG fusion protein [2] = target: GST-RhoG fusion protein (UniProt P84095); test: pull-down; GDP-loaded (1 mM) GST-RhoG-Sepharose beads rotated with human platelet whole cell lysates for 1 h at 4 °C; bound proteins detected by immunoblotting; GSH-Sepharose beads as control; only the target purified
[3] = target: T1, GST-ELMO fusion protein (ELMO2, amino acids 1-362) (UniProt Q96JJ3); test: pull-down; GST-ELMO (ELMO2 1-362) on GSH-Sepharose rotated for 1 h at 4 °C with lysates of washed human or mouse platelets stimulated with CRP or thrombin (some human samples pre-treated with pharmacologic inhibitors); lysis buffer with Tris-Cl, NaCl, MgCl2, Triton X-100; RhoG identified by immunoblotting; only the target purified
T1 sequence: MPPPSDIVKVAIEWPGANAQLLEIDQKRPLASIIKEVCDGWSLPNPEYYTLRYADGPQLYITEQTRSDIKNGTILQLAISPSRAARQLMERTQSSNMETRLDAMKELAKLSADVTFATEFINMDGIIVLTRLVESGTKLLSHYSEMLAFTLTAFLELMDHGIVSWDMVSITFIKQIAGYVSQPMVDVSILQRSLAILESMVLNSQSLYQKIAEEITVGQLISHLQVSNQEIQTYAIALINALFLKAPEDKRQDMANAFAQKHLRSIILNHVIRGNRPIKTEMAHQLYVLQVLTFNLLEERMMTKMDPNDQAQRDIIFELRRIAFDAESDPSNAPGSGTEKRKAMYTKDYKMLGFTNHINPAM

binding (GST-RhoG fusion protein [1]) | binding (GST-RhoG fusion protein [2]) | binding [3] | Substance
binds | no binding (condition: GDP-loaded RhoG) |  | DOCK1 (DOCK180) (from UniProt Q14185 1-1865)
 |  | binds | RhoG (human platelets, activated, GTP-bound form) (from UniProt P84095 1-191)
 |  | binds | RhoG (mouse platelets, activated form) (from UniProt P84096 1-191)
binds | binds |  | Vesicle-associated membrane protein 2 (from UniProt P63027 1-116)
